The chains behind the UniProt entries cited, without tags or fusion partners. Where a name states a change or a piece, a line headed by the entry shows the natural chain unless it says otherwise.
UniProt P18054: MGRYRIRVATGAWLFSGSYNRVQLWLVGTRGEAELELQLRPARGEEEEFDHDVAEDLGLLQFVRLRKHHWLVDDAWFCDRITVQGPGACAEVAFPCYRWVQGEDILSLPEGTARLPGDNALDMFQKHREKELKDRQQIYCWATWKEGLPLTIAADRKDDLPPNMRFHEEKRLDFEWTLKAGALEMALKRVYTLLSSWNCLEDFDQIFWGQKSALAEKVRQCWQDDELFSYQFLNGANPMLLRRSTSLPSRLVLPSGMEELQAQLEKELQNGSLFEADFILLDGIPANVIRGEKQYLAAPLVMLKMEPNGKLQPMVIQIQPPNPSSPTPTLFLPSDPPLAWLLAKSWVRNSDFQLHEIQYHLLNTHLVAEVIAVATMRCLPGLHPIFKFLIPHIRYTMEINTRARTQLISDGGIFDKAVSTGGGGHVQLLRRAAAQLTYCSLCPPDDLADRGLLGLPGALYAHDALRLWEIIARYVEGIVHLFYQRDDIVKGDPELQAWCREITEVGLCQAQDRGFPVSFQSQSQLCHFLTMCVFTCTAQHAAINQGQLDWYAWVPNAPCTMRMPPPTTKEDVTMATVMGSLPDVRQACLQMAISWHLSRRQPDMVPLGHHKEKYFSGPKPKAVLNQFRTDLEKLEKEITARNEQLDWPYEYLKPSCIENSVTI

About 6,100 (1.1%) of roughly 580,000 compounds were called active. Inconclusive means that the source gave no clear call. Such entries were picked first, then a sample of the others. Calls come from the whole dose curve; as a rule, active = well fitted inhibition curve with a large enough effect; inconclusive = small, poorly fitted or top-dose-only effect, or another doubt; inactive = no such curve, though single readings can be large or run the other way. Potencies beside an inconclusive call are fits to weak or partial responses and may not hold up.
Each molecule was assayed against Polyunsaturated fatty acid lipoxygenase ALOX12 (Homo sapiens) (UniProt P18054) (assay: Primary qHTS assay for inhibitors of human arachidonate 12S-lipoxygenase (ALOX12): Round 2). Settings: purified 12hLO, xylenol orange hydroperoxide absorbance; activity change, negative = inhibition: at 108 µM (top of the series) unless noted.
Outline: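 Purified human 12hLO (150 nM final) in 25 mM Hepes, 0.01% Triton X-100, pH 7.0 was preincubated 15 min at room temperature with compound. Then 40 uM arachidonic acid was added, 30 min. Hydroperoxide was read by Fe-XO absorbance ratio 573/405 nm.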
In the case of `O=C(Nc1ccc(Cl)c(Cl)c1)c1ccccc1`, the Potency is reported as inconclusive: 63.1 µM [inhibitor, partial curve, poor fit].
In the case of `O=C(Nc1nnc(CCc2ccccc2)s1)C1CCCO1` (stereo not given), the Potency is reported as inconclusive: 35.5 µM [inhibitor, partial curve, poor fit].
With `Cc1cccc(C)c1NC(=O)COc1ncnc2ccccc12` the “activity change, negative = inhibition” value was inactive: 6.04%.
For `O=C(CCN1CCN(C/C=C/c2ccccc2)CC1)Nc1ccc(Cl)cc1`, the Potency was inconclusive: 44.7 µM [inhibitor, partial curve, poor fit].
In the case of `COc1ccc(-c2cc(N3CCCC(NC(=O)c4ccc5cc[nH]c5c4)C3)n[nH]2)cc1` (stereo not given), the Potency is reported as inconclusive: 79.4 µM [inhibitor, single point].
In the case of `COc1ccc(-c2csc(NCC(C)C)n2)cc1OC`, the Potency is reported as inconclusive: 15.8 µM [inhibitor, partial curve, poor fit].
With `CCOC(=O)C1CCN(C(=O)CNC(=O)c2nn(-c3ccc(OC)cc3)c(=O)c3ccccc23)CC1` the Potency was inconclusive: 44.7 µM [inhibitor, partial curve, poor fit].
`COc1cccc(-c2noc(COC(=O)C3=CN(C)S(=O)(=O)N=C3C)n2)c1` was tested, and the “activity change, negative = inhibition” value was inactive: 33.6%.
With `Cc1nnc(NC(=O)CCN2C(=O)C3CC=CCC3C2=O)s1` (stereo not given) the Potency was inconclusive: 44.7 µM [inhibitor, partial curve].
`CCOCCCNC(=S)N1CCCN(c2nc3c(C)c(C)ccc3cc2C#N)CC1` was tested, and the Potency was inconclusive: 11.2 µM [inhibitor, full curve, poor fit].
In the case of `Cc1ccc(N2CCC(NC(=O)Cc3ccccc3C)C2=O)cc1` (stereo not given), the Potency is reported as inconclusive: 35.5 µM [inhibitor, full curve, poor fit].
In the case of `CCOC(=O)[C@H]1[C@H]2COc3ccc(C)cc3[C@@H]2N2C(=O)c3cc(OC)c(OC)cc3NC(=O)[C@@]12C`, the Potency is reported as inconclusive: 112 µM [inhibitor, single point].
`CC[C@H](C)/C=C(C)/C=C/C(=O)Cc1cc(O)c(C)c(O)c1C=O` was tested, and the Potency was inconclusive: 39.8 µM [inhibitor, partial curve, poor fit].
In the case of `COc1ccc(C2C(=O)c3ccccc3C2=O)cc1`, the Potency is reported as inconclusive: 20 µM [inhibitor, partial curve].
In the case of `Cc1ccc(-n2ncc3c(N4CCN(CCO)CC4)ncnc32)cc1Cl`, the Potency is reported as inconclusive: 89.1 µM [inhibitor, partial curve, poor fit].
In the case of `Cc1ccc(NC(=O)CSc2ccccc2NC(=O)c2cccc(Cl)c2)cc1Cl`, the “activity change, negative = inhibition” value is reported as inactive: -26%.
In the case of `COc1cccc(S(=O)(=O)Nc2ccc(C(=O)N3CCCCCC3)cc2)c1`, the Potency is reported as inconclusive: 89.1 µM [inhibitor, partial curve, poor fit].
With `CC(C)n1c(C=C[C@H](O)C[C@H](O)CC(=O)O)c(-c2ccc(F)cc2)c2ccccc21` the Potency was inconclusive: 6.85 µM [inhibitor, partial curve, poor fit].
In the case of `Cc1ccc(S(=O)(=O)Nc2nc(-c3ccccc3)cs2)cc1`, the “activity change, negative = inhibition” value is reported as inactive: -21.7%.
`Cc1ccc(S(=O)(=O)N/N=C/c2cc(Br)c(C)o2)cc1` was tested, and the Potency was inconclusive: 15.8 µM [inhibitor, single point].
In the case of `Cc1cc(Cl)ccc1OCC(=O)NC1CCN(C)CC1`, the Potency is reported as inconclusive: 3.55 µM [inhibitor, full curve].
`Cc1ccc(-c2cnc(SCC(=O)Nc3ccc(F)cc3)o2)cc1C` was tested, and the Potency was inconclusive: 89.1 µM [inhibitor, single point].
`O=C(OCc1nc2ccccc2o1)c1cccc(F)c1` was tested, and the Potency was inconclusive: 25.1 µM [inhibitor, partial curve, poor fit].
For `Cc1ccc2nc(NC3=NC4(CCCC4)C4=C(CCCC4=O)N3)oc2c1`, the Potency was inconclusive: 10 µM [inhibitor, full curve, poor fit].
`COc1cc2oc(=O)cc(CN3CCCCCCC3)c2cc1Cl` was tested, and the Potency was inconclusive: 70.8 µM [inhibitor, partial curve, poor fit].
In the case of `COc1ccc(NC(=S)Nc2ccc3nccnc3c2)cc1`, the “activity change, negative = inhibition” value is reported as inactive: -12.3%.
`O=C(Nc1ccc2c(c1)ncn2-c1ccccc1)c1ccco1` was tested, and the Potency was inconclusive: 44.7 µM [inhibitor, partial curve, poor fit].
For `Cc1ccccc1C(=O)N1CCC2(CC1)NC(=O)N(c1cccc(F)c1)N2`, the Potency was active: 1.78 µM.
`Cc1c(CN(C)CCc2ccccc2)c(=O)n(-c2ccccc2)n1C` was tested, and the Potency was inconclusive: 0.891 µM [inhibitor, full curve, poor fit].
With `C=CCNC(=O)NC(=O)CN(C)c1ccc2ccccc2c1` the Potency was inconclusive: 126 µM [inhibitor, single point].
`C=CCn1c(=O)c2ccccc2n2c(SCC(=O)c3ccccc3)nnc12` was tested, and the “activity change, negative = inhibition” value was inactive: 0%.
With `COc1ccc(NC(=O)/C=N/O)cc1` the “activity change, negative = inhibition” value was inactive: -2.34%.
`Cc1cc(NC(=S)NC(=O)C2CC2)ccc1Br` was tested, and the Potency was inconclusive: 50.1 µM [inhibitor, partial curve, poor fit].
In the case of `CC(C)Nc1nc(N)c(C(=O)C23CC4CC(CC(C4)C2)C3)s1`, the Potency is reported as inconclusive: 100 µM [inhibitor, single point].
`COc1ccc(-c2csc(NC(=O)c3c(C)noc3C)n2)cc1OC` was tested, and the Potency was inconclusive: 63.1 µM [inhibitor, partial curve, poor fit].
With `CC(C)Cn1cc(NC(=O)Nc2ccccc2)c2ccccc2c1=O` the Potency was inconclusive: 141 µM [inhibitor, partial curve, poor fit].
With `Cc1cccc(C(=O)N2CCc3cc(CNC(=O)Cc4ccc(F)cc4)ccc32)c1` the Potency was inconclusive: 112 µM [inhibitor, partial curve, poor fit].
With `O=C(O)CCn1ncc2cc(OC3CCN(C(=O)Oc4ccccc4Cl)CC3)ccc21` the Potency was inconclusive: 79.4 µM [inhibitor, partial curve, poor fit].
For `CN(C1CCCCC1)S(=O)(=O)c1ccc(=S)[nH]c1`, the Potency was active: 39.8 µM.
In the case of `COc1ccccc1-c1cnc2c(c1)C(=O)N([C@@H](C)CO)C[C@@H](C)[C@@H](CN(C)C(C)=O)O2`, the Potency is reported as inconclusive: 79.4 µM [inhibitor, single point].
`COc1cc(NC(=O)Cn2c(C)nc3c(sc4cccc(F)c43)c2=O)cc(OC)c1OC` was tested, and the “activity change, negative = inhibition” value was inactive: 22%.
For `O=C(O)CCCc1nc(-c2ccccc2)no1`, the “activity change, negative = inhibition” value was inactive: -9.33%.
For `CC(c1c(F)cccc1F)n1cnc2c1c(=O)n(C)c(=O)n2C` (stereo not given), the “activity change, negative = inhibition” value was inactive: -0.915%.
In the case of `CC1(C(=O)NS(=O)(=O)c2ccc(F)cc2F)CCN1C(=O)Cc1cc(F)ccc1F` (stereo not given), the Potency is reported as inconclusive: 17.8 µM [inhibitor, full curve].
With `Cc1cc(S(=O)(=O)NCc2ccco2)c(C)cc1Cl` the Potency was inconclusive: 112 µM [inhibitor, single point].
With `COc1ccccc1N1CCN(Cc2cc3c(cc2[N+](=O)[O-])OCO3)CC1` the Potency was inconclusive: 35.5 µM [inhibitor, partial curve, poor fit].
In the case of `CC(=O)c1cc2c(cc1NC(=O)CN1CCN(c3cccc(C(F)(F)F)c3)CC1)OCO2`, the Potency is reported as inconclusive: 14.1 µM [inhibitor, full curve, poor fit].
`Cc1ccc(CNC(=O)c2[nH]c(C(F)(F)F)nc2-c2ccccc2)cc1` was tested, and the Potency was inconclusive: 39.8 µM [inhibitor, partial curve, poor fit].
`CS(=O)(=O)Nc1cccc(-c2nc(Nc3ccccc3)c3ccccc3n2)c1` was tested, and the “activity change, negative = inhibition” value was inactive: -29.7%.
In the case of `O=C(Nc1ccc(OC(F)(F)F)cc1)c1cc(-c2ccc[nH]2)n[nH]1`, the Potency is reported as active: 15.8 µM.
With `CCC1(CC)Cc2ccccc2C(N)=C1C#N` the “activity change, negative = inhibition” value was inactive: 147%.
In the case of `O=C(c1nnc(COc2cccc(N3CCOCC3)c2)n1Cc1ccccc1)N1CCC[C@@H]1c1ccc(Br)cc1`, the Potency is reported as inconclusive: 17.8 µM [inhibitor, full curve, poor fit].
For `O=C1Nc2cccnc2Sc2ccccc21`, the Potency was inconclusive: 39.8 µM [inhibitor, partial curve].
With `CN(C)c1ccc(CNC(=O)C2CCN(S(=O)(=O)c3ccc4c(ccn4C)c3)CC2)cc1` the Potency was inconclusive: 44.7 µM [inhibitor, partial curve, poor fit].
`COc1cc2c(cc1OC)CN(Cc1ccc(F)cc1)CC2` was tested, and the Potency was inconclusive: 0.447 µM [inhibitor, full curve, poor fit].
With `CCc1noc(C)c1C(=O)Nc1ccc(F)c(F)c1` the activity change, negative = inhibition was inconclusive: -34.1% [inhibitor].
For `CC[C@H](C)[C@@H](CN[C@H](C)CNC)NCCC(c1ccccc1)c1ccccc1`, the “activity change, negative = inhibition” value was inactive: -0.275%.
For `CCOC(=O)Nc1nnc(-c2ccccc2OC)s1`, the “activity change, negative = inhibition” value was inactive: 20.6%.
`Nc1c(Cl)ncnc1N/N=C/c1cccnc1` was tested, and the Potency was inconclusive: 22.4 µM [inhibitor, partial curve, poor fit].
For `CC(=O)Nc1ccc(NC(=O)CC2C=CCC2)cc1` (stereo not given), the Potency was inconclusive: 35.5 µM [inhibitor, partial curve].
For `COc1ccc2c(CN(Cc3ccccc3)Cc3ccccc3)cc(=O)oc2c1`, the Potency was inconclusive: 79.4 µM [inhibitor, single point].
For `Cc1nc(-c2c3n(c(=O)n(CC(=O)Nc4ccccc4Cl)c2=O)CCCC3)no1`, the Potency was inconclusive: 10 µM [inhibitor, full curve].
In the case of `COc1ccccc1C(=O)N1CCC2(CC1)NC(=O)N(Cc1ccc(C)cc1)C2=O`, the Potency is reported as inconclusive: 15.8 µM [inhibitor, full curve, poor fit].
`C=CCOC(=O)C1=C[C@H](c2coc3ccccc3c2=O)C[C@H](OCCCCO)O1` was tested, and the Potency was inconclusive: 70.8 µM [inhibitor, partial curve, poor fit].
% is set by controls: 0 for no effect and ±100 for the full control effect; potency is the fitted concentration of half-maximal effect.
